This is one part of the list. Further columns of the screen follow, without active or inactive calls. Most of these compounds were active or inconclusive in the main read-out, so they are no random draw. Words in brackets tell the shape of the fitted curve; partial curves, single points and poor fits give uncertain potencies.
Test: qHTS Assay to Find Inhibitors of Chronic Active B-Cell Receptor Signaling
Settings: ABC-DLBCL IkBa-CBG/CBR reporter, luminescence ratio (green luciferase fused to IkBa over red control in TMD8 lymphoma cells), 4 h
Method in brief: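 Concentration-response series (up to 46 uM) were applied to TMD8 dual-reporter cells for 4 h at 37C with doxycycline. Green/red ratio, after filter-overlap correction, defined %Activity; red signal alone was normalised to basal cells and zero luminescence.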

[1] = measured here: CBR red luminescence, cell number
[2] = measured here: IkBa-CBG green luminescence

Row | SMILES | AC50 [1] | AC50 [2]
1 | COC(=O)c1ccc2c(=O)n(Cc3ccco3)c(SCC(=O)Nc3ccc(C)c(Cl)c3)nc2c1 | 4.11 µM [falling, partial curve, poor fit] | –
2 | CC(Sc1nc(N)cc(N)n1)C(=O)Nc1ccc(N2CCOCC2)cc1 (configuration not stated) | 0.326 µM [rising, full curve] | –
3 | COc1cc2c(cc1OC)CN(CC(=O)Nc1ccc(C)cc1)CC2 | 2.91 µM [rising, partial curve, poor fit] | –
4 | COc1ccc(-c2nnc(SCC(=O)NCc3cccs3)n2C(C)C)cc1 | 16.4 µM [rising, partial curve, poor fit] | –
5 | COc1ccc(-c2nn(-c3ccccc3)cc2/C=C2/SC(=S)N(CCC(=O)O)C2=O)cc1 | 14.1 µM [rising, single point] | –
6 | Cn1c2ccsc2c2ncn(Cc3ccccc3F)c(=O)c21 | 10.3 µM [rising, partial curve, poor fit] | –
7 | Cc1cccc(C)c1Nc1c(-c2ccccn2)nc2ccccn12 | 12.6 µM [falling, partial curve, poor fit] | –
8 | Cc1cccc(C)c1NS(=O)(=O)c1ccc(-c2cnc(C3CC3)o2)cc1 | 1.12 µM [rising, full curve, poor fit] | 1.26 µM [falling, full curve]
9 | COc1ccc(OC)c(-c2cc(C(=O)Nc3cccc(Cl)c3)no2)c1 | 0.282 µM [falling, full curve, poor fit] | –
10 | O=C(NC(NC(=O)c1ccccc1)C(=O)c1ccccc1)c1ccccc1 | 0.0411 µM [rising, full curve, poor fit] | –
11 | O=C(N/N=C/c1ccccc1)c1[nH]c2ccc(Br)cc2c1-c1ccccc1 | 1.64 µM [rising, full curve] | 2.59 µM [falling, full curve]
12 | Cc1ccc(CNC(=O)C2CCC(=O)N(Cc3ccc(Cl)cc3)C2)cc1F (configuration not stated) | 14.1 µM [falling, single point] | –
13 | O=C(Nc1ccc2c(c1)OCCO2)c1ccc(Cl)c(S(=O)(=O)N2CCCCC2)c1 | 23.1 µM [falling, single point] | –
14 | O=C(CCCn1c(=O)[nH]c2cc(Cl)ccc2c1=O)NCCCN1CCN(c2ccc(F)cc2)CC1 | 4.47 µM [falling, full curve] | –
15 | COc1cccc(/C=C2/Oc3ccccc3N(CC(=O)NCC3CCCO3)C2=O)c1 (configuration not stated) | 5.01 µM [rising, full curve, poor fit] | –
16 | Nc1cccc(CCc2nc3cc4ccccc4cc3[nH]2)c1 | 23.1 µM [falling, partial curve] | 20.6 µM [falling, single point]
17 | CN(C)S(=O)(=O)Oc1ccsc1C(=O)Nc1ccc(Cl)c(Cl)c1 | 35.5 µM [falling, single point] | –
18 | Cc1cc(C(=O)NCCCN2CCCC2=O)no1 | 1.64 µM [rising, partial curve] | –
19 | Cc1cc(C)cc(NC(=O)C2CCN(c3cnccn3)CC2)c1 | 17.8 µM [falling, partial curve, poor fit] | –
20 | COCCOC(=O)c1[nH]c2c(c1C)C(=O)CC(c1ccccc1)C2 (configuration not stated) | 3.26 µM [rising, full curve] | 2.91 µM [falling, full curve]
21 | COc1ccc(CNC(=O)Cn2c(=O)n3nc(-c4cccc(F)c4)nc3c3ccccc32)cc1OC | 35.5 µM [rising, single point] | –

Some of the entries so far, with each value named:
CC(Sc1nc(N)cc(N)n1)C(=O)Nc1ccc(N2CCOCC2)cc1 (configuration not stated)
  AC50 [1]: 0.326 µM [rising, full curve]
COc1cc2c(cc1OC)CN(CC(=O)Nc1ccc(C)cc1)CC2
  AC50 [1]: 2.91 µM [rising, partial curve, poor fit]
COc1ccc(-c2nnc(SCC(=O)NCc3cccs3)n2C(C)C)cc1
  AC50 [1]: 16.4 µM [rising, partial curve, poor fit]

Continuation.

Row | SMILES | AC50 [1] | AC50 [2]
22 | c1ccc(-c2cc(-c3nnc4n3N=C(c3ccc5ccccc5c3)CS4)[nH]n2)cc1 | 2.59 µM [rising, partial curve, poor fit] | 2.59 µM [falling, full curve]
23 | Cc1ccc(C)c(-n2nnnc2SCC(=O)Nc2c(C)n(C)n(-c3ccccc3)c2=O)c1 | 3.66 µM [falling, single point] | –
24 | COc1ccc(/C=N/NC(=O)c2cc(-c3ccccc3OC(C)C)nc3ccccc23)cc1CN1CCOCC1 | 29.1 µM [falling, single point] | –
25 | O=C(NNC(=O)c1cccs1)c1ccc(Cl)c([N+](=O)[O-])c1 | 7.31 µM [falling, partial curve] | –
26 | O=C1c2cnc3nc(SCc4ccc(Cl)cc4)nn3c2CC2c3ccccc3CCN12 (configuration not stated) | 3.16 µM [rising, partial curve] | –
27 | Cc1ccc(-c2nc3cccnc3s2)cc1NS(=O)(=O)c1ccc2c(c1)CCCC2 | – | 20.6 µM [falling, single point]
28 | CC(C)=NOc1nc(N(C)C)nc(N2CCOCC2)n1 | 22.4 µM [rising, single point] | –
29 | COc1ccc(NC(=O)COc2cccc3c2CCNC3=O)cc1 | 25.9 µM [rising, single point] | –
30 | Cc1ccc(S(=O)(=O)N(C)C)cc1-n1c(SCC(=O)Nc2ccc(F)cc2Cl)nc2ccccc2c1=O | 6.51 µM [rising, full curve, poor fit] | –
31 | N#C/C(=C\c1ccccc1[N+](=O)[O-])C(=O)NCc1ccccc1 | 17.8 µM [falling, single point] | –
32 | COc1ccc2c(c1)O/C(=C\c1ccco1)C2=O | 15.8 µM [falling, partial curve, poor fit] | –
33 | O=C(N/N=C/C(Br)=C/c1ccccc1)NC1CCCCC1 | – | 14.1 µM [falling, single point]
34 | CCc1ccc2nc3sc(C(=O)Nc4nnc(CC)s4)c(N)c3cc2c1 | 11.2 µM [falling, single point] | –
35 | CCCN1CCN(C(=O)CCCn2c(C)c3cnn(-c4ccccc4)c(=O)c3c2C)CC1 | 18.4 µM [falling, single point] | –
36 | O=C1CCC/C(=N\NC(=O)c2ccc(NS(=O)(=O)c3ccc(Br)cc3)cc2)C1 | 23.1 µM [falling, partial curve] | –
37 | Cc1ccc(NC(=O)CNC(=O)c2cccs2)nc1 | 20.6 µM [falling, partial curve] | –
38 | CC1CCc2c(sc(NC(=O)COC(=O)C3CCCO3)c2C#N)C1 (configuration not stated) | 15.8 µM [rising, partial curve, poor fit] | –
39 | Cc1cccc(N2C(=O)CC(N3CCN(C(=O)c4ccccc4)CC3)C2=O)c1 (configuration not stated) | 23.1 µM [rising, partial curve] | –
40 | COc1ccc(-n2nnnc2S(=O)(=O)Cc2ccc(C(=O)O)cc2)cc1 | 5.8 µM [falling, full curve] | 6.51 µM [rising, full curve, poor fit]
41 | O=C(/C(C=Nc1ccc(F)cc1)=C(/O)c1ccco1)C(F)(F)F | 20.6 µM [falling, single point] | –
42 | O=C(N/N=C/c1ccc2c(c1)OCO2)c1ccc(COCC(F)(F)C(F)F)cc1 | 35.5 µM [rising, single point] | –

Row | SMILES | AC50 [1] | AC50 [2]
43 | CC(=O)c1ccc(N2CCN(C(=O)c3cc(-c4ccc5c(c4)OCO5)nc4ccccc34)CC2)cc1 | 8.2 µM [falling, partial curve, poor fit] | –
44 | COc1cc2nc(Nc3ccc(C)c(C)c3)nc(N)c2cc1OC | 35.5 µM [falling, single point] | –
45 | CC(=O)c1ccc(NC(=S)NNC(=O)NC2CCCCC2)cc1 | 5.62 µM [falling, partial curve, poor fit] | –
46 | O=C(CSc1nnnn1-c1ccc(F)cc1)Nc1ccccc1F | 20 µM [falling, single point] | –
47 | Cc1ccnc(NC(=S)NC(=O)c2ccco2)c1 | 11.2 µM [falling, partial curve] | –
48 | CCc1nnc(NC(=O)COC(=O)CN2C(=O)c3ccccc3C2=O)s1 | 1 µM [rising, full curve] | –
49 | CCOC(=O)CN1C(=O)/C(=C/c2ccc(Cl)cc2)Oc2ccccc21 | 5.62 µM [rising, single point] | –
50 | Cc1cnc(NC(=O)c2ccc3c(c2)OCCO3)s1 | 3.26 µM [falling, full curve, poor fit] | –
51 | COc1ccc(C2CC(c3ccccc3Br)=NN2c2ccc(S(N)(=O)=O)cc2)cc1 (configuration not stated) | – | 18.4 µM [falling, partial curve, poor fit]
52 | O=c1c2c(nc3c(-c4ccc(Cl)cc4)c[nH]n13)CCC2 | 10 µM [falling, partial curve] | –
53 | O=C(c1ccco1)N1CCC(c2nc3c(nnn3Cc3c(Cl)cccc3Cl)c(=O)[nH]2)CC1 | 11.2 µM [falling, partial curve, poor fit] | –
54 | COc1ccc(S(=O)(=O)Cc2ccc(C(=O)N3CCN(c4cc(Cl)ccc4C)CC3)o2)cc1 | 4.61 µM [falling, partial curve, poor fit] | –
55 | Cc1ccc(/C=C/c2nc3ccccc3n2S(=O)(=O)c2cccc(Cl)c2)cc1 | 3.55 µM [falling, full curve] | –
56 | Cc1cccc(OCCNc2cc(N3CCOCC3)ccc2[N+](=O)[O-])c1 | 0.366 µM [rising, full curve, poor fit] | –
57 | CC(CC(=O)NCc1ccc(Cl)cc1Cl)CC1=NS(=O)(=O)c2ccccc2N1 (configuration not stated) | 35.5 µM [falling, single point] | –
58 | COc1ccc(CCN2CC(C(=O)NCc3nc4ccccc4n3C)CCC2=O)cc1 (configuration not stated) | 35.5 µM [falling, single point] | –
59 | O=C(COC(=O)C1CC(=O)N(Cc2ccco2)C1)Nc1ccc(F)cc1F (configuration not stated) | 29.1 µM [rising, single point] | –
60 | COc1ccc(NC(=O)Nc2ccccc2F)cc1 | 2.31 µM [falling, full curve] | –
61 | COCCN1C(=O)/C(=C/c2ccc(OCc3ccc(C(=O)O)cc3)c(OC)c2)SC1=Nc1ccccc1 | 0.58 µM [falling, partial curve, poor fit] | –
